The supplement of paper PMC10849652
This is one part of the list.

The chains behind the UniProt entries cited, without tags or fusion partners. Where a name states a change or a piece, a line headed by the entry shows the natural chain unless it says otherwise.
UniProt Q9H0C8: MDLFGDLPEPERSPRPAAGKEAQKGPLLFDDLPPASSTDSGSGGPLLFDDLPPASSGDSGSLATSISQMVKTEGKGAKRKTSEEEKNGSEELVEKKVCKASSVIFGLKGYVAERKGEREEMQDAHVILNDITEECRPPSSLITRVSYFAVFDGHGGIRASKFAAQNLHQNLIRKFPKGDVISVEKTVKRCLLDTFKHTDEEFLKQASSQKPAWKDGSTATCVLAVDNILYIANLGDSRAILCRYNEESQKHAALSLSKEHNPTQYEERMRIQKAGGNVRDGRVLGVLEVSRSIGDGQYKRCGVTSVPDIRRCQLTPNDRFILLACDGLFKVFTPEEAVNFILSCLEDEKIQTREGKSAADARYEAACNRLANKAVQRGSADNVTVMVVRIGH
UniProt Q13418: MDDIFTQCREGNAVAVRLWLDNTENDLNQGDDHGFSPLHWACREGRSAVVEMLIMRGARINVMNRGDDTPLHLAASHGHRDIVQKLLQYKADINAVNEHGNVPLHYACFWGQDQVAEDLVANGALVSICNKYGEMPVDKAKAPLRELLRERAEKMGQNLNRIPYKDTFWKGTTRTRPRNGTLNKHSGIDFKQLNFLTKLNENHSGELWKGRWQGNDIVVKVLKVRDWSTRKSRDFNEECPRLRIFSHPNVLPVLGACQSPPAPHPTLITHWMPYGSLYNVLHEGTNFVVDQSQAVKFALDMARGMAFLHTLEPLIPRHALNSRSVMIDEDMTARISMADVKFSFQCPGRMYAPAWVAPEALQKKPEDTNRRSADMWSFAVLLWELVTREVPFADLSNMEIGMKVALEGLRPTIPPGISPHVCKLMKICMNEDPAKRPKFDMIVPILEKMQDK
UniProt Q6UWB1, whole entry, looked up: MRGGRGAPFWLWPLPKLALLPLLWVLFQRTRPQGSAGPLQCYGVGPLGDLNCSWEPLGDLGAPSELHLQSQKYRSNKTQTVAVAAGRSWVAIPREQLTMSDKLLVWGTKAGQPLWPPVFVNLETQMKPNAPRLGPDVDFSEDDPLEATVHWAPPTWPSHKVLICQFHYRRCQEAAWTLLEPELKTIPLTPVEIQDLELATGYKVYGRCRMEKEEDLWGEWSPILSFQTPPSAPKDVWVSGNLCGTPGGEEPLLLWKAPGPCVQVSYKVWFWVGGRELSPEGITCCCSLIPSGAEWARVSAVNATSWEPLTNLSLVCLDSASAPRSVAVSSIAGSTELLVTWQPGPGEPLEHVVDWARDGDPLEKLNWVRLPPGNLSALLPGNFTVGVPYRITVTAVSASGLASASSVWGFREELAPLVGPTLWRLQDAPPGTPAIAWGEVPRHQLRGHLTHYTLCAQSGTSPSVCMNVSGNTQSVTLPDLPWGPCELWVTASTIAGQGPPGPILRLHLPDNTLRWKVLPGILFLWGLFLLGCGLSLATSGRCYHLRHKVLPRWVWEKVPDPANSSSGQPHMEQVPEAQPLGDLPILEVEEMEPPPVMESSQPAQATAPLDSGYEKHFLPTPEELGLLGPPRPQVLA
UniProt P19823: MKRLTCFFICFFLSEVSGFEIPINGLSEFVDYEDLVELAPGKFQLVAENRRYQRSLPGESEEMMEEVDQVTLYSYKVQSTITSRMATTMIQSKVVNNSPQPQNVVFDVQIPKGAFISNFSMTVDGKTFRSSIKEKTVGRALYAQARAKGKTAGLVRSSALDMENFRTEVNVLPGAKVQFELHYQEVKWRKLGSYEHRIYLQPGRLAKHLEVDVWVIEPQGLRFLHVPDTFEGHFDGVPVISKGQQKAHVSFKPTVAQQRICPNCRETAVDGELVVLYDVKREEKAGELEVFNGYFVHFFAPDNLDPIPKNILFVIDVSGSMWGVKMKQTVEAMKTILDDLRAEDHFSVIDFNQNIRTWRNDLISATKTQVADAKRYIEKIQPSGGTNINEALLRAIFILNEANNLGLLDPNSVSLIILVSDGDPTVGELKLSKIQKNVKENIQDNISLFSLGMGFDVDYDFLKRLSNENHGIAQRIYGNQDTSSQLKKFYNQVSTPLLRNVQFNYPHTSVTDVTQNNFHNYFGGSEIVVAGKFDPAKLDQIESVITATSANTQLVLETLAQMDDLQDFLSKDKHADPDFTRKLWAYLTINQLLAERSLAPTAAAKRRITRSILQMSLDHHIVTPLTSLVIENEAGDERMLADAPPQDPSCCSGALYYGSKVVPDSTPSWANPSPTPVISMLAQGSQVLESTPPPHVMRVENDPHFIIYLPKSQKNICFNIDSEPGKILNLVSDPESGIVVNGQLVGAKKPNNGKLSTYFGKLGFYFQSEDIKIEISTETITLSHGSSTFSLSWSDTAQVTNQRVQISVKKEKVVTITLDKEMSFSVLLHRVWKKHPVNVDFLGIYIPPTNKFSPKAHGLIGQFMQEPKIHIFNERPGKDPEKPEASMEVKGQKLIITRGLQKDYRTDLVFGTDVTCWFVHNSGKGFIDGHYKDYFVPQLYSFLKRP
UniProt P32019: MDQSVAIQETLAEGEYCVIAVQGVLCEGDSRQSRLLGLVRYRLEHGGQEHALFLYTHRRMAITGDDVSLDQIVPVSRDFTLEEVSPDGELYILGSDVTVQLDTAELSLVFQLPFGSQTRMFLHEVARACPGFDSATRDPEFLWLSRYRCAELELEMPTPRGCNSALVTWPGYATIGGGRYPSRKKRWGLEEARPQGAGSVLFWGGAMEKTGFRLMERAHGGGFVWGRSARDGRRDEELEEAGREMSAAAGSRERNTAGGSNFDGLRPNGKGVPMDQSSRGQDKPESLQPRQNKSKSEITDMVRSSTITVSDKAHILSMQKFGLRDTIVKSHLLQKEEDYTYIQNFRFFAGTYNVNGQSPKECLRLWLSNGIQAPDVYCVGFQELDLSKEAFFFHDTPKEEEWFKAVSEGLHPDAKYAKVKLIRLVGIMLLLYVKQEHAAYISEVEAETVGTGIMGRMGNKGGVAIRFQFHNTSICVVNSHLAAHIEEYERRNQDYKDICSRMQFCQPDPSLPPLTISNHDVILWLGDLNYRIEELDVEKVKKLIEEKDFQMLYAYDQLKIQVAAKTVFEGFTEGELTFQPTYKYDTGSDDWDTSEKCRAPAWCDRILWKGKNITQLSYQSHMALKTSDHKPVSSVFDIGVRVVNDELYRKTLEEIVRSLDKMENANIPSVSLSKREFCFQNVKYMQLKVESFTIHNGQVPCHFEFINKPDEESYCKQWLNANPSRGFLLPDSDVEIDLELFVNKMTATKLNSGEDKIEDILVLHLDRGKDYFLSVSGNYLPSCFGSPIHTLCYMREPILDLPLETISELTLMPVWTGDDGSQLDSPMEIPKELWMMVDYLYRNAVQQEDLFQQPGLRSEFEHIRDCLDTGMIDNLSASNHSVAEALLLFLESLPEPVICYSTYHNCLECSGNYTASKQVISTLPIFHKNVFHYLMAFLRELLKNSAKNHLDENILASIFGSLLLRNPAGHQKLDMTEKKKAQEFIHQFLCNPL
UniProt Q01628, whole entry, looked up: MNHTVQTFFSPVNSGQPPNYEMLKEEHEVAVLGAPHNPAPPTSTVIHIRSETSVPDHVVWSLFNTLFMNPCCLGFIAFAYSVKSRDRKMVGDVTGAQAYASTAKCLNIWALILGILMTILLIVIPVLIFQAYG
UniProt Q96SY0, whole entry, looked up: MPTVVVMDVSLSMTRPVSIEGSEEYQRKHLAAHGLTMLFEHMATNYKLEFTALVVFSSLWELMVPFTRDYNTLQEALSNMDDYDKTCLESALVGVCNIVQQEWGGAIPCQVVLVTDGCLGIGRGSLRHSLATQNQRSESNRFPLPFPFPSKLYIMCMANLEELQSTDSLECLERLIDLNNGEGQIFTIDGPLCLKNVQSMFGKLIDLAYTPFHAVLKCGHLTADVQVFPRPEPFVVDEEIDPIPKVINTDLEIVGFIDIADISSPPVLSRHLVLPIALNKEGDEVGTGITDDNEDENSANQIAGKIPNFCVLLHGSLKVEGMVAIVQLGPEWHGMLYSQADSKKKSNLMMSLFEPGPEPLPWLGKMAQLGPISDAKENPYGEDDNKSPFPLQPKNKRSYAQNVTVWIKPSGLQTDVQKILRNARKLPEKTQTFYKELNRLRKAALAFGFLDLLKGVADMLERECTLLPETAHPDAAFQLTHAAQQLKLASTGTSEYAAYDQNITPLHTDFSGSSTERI
UniProt Q9Y5U9: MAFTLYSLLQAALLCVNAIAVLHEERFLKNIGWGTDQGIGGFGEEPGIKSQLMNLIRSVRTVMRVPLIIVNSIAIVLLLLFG
UniProt Q969R8: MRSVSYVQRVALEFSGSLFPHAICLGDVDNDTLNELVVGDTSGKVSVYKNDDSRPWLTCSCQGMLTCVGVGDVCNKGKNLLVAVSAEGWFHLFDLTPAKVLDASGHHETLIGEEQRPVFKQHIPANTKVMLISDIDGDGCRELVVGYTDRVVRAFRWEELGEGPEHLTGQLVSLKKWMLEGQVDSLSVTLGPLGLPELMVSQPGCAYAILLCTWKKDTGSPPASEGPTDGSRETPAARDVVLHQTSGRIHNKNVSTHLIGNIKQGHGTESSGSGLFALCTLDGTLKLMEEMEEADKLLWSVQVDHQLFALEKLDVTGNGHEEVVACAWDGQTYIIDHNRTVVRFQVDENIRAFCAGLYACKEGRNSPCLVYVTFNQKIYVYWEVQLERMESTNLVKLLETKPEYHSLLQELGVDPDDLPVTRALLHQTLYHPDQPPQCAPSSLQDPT
UniProt Q9H6K1: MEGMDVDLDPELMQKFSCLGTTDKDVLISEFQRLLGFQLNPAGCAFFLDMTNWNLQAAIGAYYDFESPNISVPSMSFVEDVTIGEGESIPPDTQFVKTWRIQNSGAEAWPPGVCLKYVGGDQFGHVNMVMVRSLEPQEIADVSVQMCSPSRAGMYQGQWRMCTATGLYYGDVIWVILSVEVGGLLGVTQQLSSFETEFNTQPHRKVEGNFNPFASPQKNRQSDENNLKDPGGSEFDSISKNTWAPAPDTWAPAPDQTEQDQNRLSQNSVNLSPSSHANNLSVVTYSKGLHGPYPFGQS
UniProt Q16891: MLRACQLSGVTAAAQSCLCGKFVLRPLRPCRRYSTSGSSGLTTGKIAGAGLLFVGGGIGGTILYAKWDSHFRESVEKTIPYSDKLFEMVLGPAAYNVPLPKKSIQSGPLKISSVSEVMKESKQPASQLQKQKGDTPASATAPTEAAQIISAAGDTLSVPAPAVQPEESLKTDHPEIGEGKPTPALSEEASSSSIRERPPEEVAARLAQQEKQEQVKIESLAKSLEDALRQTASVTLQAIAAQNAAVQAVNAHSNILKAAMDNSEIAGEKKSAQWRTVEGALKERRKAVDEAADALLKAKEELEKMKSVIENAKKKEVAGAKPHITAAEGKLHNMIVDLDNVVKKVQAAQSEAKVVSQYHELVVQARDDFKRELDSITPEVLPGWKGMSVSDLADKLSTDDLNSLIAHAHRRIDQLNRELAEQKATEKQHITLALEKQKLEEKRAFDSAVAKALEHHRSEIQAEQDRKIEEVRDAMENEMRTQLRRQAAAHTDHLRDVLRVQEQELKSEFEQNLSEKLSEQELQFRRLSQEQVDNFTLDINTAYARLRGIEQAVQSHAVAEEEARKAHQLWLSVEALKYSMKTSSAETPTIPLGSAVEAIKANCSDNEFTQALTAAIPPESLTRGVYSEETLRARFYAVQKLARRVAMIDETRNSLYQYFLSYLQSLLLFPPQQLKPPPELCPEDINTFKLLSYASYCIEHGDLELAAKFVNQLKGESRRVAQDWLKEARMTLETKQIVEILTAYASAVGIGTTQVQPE
UniProt Q9Y287, whole entry, looked up: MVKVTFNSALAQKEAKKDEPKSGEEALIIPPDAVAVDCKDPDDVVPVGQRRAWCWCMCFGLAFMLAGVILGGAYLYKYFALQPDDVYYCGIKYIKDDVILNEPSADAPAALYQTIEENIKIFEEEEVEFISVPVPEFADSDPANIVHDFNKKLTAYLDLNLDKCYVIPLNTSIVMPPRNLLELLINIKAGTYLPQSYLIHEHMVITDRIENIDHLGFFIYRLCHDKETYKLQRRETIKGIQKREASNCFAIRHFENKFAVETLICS
UniProt Q7Z5L9: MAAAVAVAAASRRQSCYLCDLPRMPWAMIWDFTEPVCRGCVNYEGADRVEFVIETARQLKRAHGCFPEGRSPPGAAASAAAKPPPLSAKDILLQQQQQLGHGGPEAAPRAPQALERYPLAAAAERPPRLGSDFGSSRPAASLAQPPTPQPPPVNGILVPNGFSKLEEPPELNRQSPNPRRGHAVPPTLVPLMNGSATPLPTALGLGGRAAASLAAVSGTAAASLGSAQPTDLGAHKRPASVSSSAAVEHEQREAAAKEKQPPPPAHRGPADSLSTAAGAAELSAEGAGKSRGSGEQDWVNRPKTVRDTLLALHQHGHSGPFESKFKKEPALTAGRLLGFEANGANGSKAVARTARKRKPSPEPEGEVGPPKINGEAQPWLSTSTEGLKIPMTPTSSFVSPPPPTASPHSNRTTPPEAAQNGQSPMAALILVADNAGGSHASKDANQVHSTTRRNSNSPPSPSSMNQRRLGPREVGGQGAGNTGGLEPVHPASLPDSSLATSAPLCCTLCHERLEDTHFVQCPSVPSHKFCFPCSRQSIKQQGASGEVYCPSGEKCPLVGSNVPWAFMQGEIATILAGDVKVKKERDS

compound: CCN(CC)Cc1ccc2cc(COC(=O)Nc3ccc(C(=O)NO)cc3)ccc2c1 [givinostat]; assay: log2 fold change, soluble protein after heating vs DMSO (PISA); higher = thermal stabilisation; K562 cells, 10 uM, 30 min; active = over 0.2 and 3.5 SD of the protein, either way, in both replicates (recomputed)
Summary of the method: (§1)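 K562 cells at 2×10^6 cells/mL were given 10 μM compound for 30 min. Aliquots then went through 3 min of heating across 48°C-58°C, were pooled, and were extracted in PBS with 0.5% NP-40 at 4°C, and the supernatant after 21,000xg for 90 min was quantified by TMTpro 16plex LC-MS/MS with channel sums equalised. Thermal stability relative to control samples, from duplicates, is given as log2 fold change.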

log2 fold change, inactive:
ILKAP (UniProt Q9H0C8) 0.071
ILK (UniProt Q13418) 0.041
IDH3B (UniProt O43837) 0.024
IL27RA (UniProt Q6UWB1) 0.006
ILF2 (UniProt Q12905) -0.02
ILVBL (UniProt A1L0T0) -0.002
ITPKA (UniProt P23677) 0.52
ITIH2 (UniProt P19823) -0.034
INPP5B (UniProt P32019) 0.105
ISCU (UniProt Q9H1K1) -0.097
IFITM3 (UniProt Q01628) -0.036
INTS14 (UniProt Q96SY0) 0.009
IRF3 (UniProt Q14653) 0.031
INTS5 (UniProt Q6P9B9) 0.038
ISY1 isoform 1 (UniProt Q9ULR0) -0.025
IKBKB (UniProt O14920) 0.2
INTS3 (UniProt Q68E01) 0.137
IRAK4 (UniProt Q9NWZ3) 0.062
IFRD1 (UniProt O00458) -0.154
ISYNA1 (UniProt Q9NPH2) -0.242
IER3IP1 (UniProt Q9Y5U9) 0.036
IPO7 (UniProt O95373) 0.009
INPPL1 (UniProt O15357) 0.172
ITFG2 (UniProt Q969R8) -0.138
ILRUN (UniProt Q9H6K1) -0.051
IMMT isoform 2 (UniProt Q16891) 0.045
ISCA2 (UniProt Q86U28) -0.089
ITM2B (UniProt Q9Y287) 0.001
IRF2BP2 (UniProt Q7Z5L9) 0.063
INTS2 (UniProt Q9H0H0) 0.018

compound: CCN(CCCOc1ccc2c(Nc3cc(CC(=O)Nc4cccc(F)c4)[nH]n3)ncnc2c1)CCOP(=O)(O)O [barasertib]; assay: as above
Summary of the method: as §1

log2 fold change, inactive:
ILKAP (UniProt Q9H0C8) 0.07
ILK (UniProt Q13418) 0.019
IDH3B (UniProt O43837) 0.008
IL27RA (UniProt Q6UWB1) 0.011
ILF2 (UniProt Q12905) -0.119
ILVBL (UniProt A1L0T0) 0.021
ITPKA (UniProt P23677) 0.332
ITIH2 (UniProt P19823) -0.064
INPP5B (UniProt P32019) 0.069
ISCU (UniProt Q9H1K1) 0.016
IFITM3 (UniProt Q01628) 0.051
INTS14 (UniProt Q96SY0) 0.007
IRF3 (UniProt Q14653) -0.015
INTS5 (UniProt Q6P9B9) 0.015
ISY1 isoform 1 (UniProt Q9ULR0) 0.01
IKBKB (UniProt O14920) 0.016
INTS3 (UniProt Q68E01) 0.05
IRAK4 (UniProt Q9NWZ3) 0.024
IFRD1 (UniProt O00458) -0.079
ISYNA1 (UniProt Q9NPH2) 0.027
IER3IP1 (UniProt Q9Y5U9) 0.007
IPO7 (UniProt O95373) 0.047
INPPL1 (UniProt O15357) 0.071
ITFG2 (UniProt Q969R8) 0.094
ILRUN (UniProt Q9H6K1) -0.044
IMMT isoform 2 (UniProt Q16891) 0.081
ISCA2 (UniProt Q86U28) 0.038
ITM2B (UniProt Q9Y287) 0.076
IRF2BP2 (UniProt Q7Z5L9) 0.002
